# From patent US20050244864A1, “Development and use of fluorescent probes of unbound analytes” (priority 2004, published 2005)
# Amino acid sequences for entries named in this document (tags omitted). A change or cut given only in a name is not applied to a line headed by its entry.
# UniProt P02693: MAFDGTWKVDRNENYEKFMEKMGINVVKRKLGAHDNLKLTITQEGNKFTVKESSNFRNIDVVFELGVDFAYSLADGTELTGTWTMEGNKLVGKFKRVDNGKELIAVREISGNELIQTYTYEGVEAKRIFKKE
# B1: L2P12C5: acrylodan-labeled rI-FABP-L72A mutein: M18 I, G31 I, F55 M, A73 I (protein, UniProt P02693 2-132, looked up, variant M18I G31I F55M L72A A73I)
# Fatty acid-binding protein, …: AFDGTWKVDRNENYEKFIEKMGINVVKRKLIAHDNLKLTITQEGNKFTVKESSNMRNIDVVFELGVDFAYSAIDGTELTGTWTMEGNKLVGKFKRVDNGKELIAVREISGNELIQTYTYEGVEAKRIFKKE
# modifications: acrylodan label
# B2: L2P8A6: acrylodan-labeled rI-FABP-L72A mutein: M18 I, G31 V, F55 V, A73 V (protein, UniProt P02693 2-132, looked up, variant M18I G31V F55V L72A A73V)
# Fatty acid-binding protein, …: AFDGTWKVDRNENYEKFIEKMGINVVKRKLVAHDNLKLTITQEGNKFTVKESSNVRNIDVVFELGVDFAYSAVDGTELTGTWTMEGNKLVGKFKRVDNGKELIAVREISGNELIQTYTYEGVEAKRIFKKE
# modifications: acrylodan label
# B3: L2P11B4: acrylodan-labeled rI-FABP-L72A mutein: M18 V, G31 A, F55 WT, A73 W (protein, UniProt P02693 2-132, looked up, variant M18V G31A L72A A73W)
# Fatty acid-binding protein, …: AFDGTWKVDRNENYEKFVEKMGINVVKRKLAAHDNLKLTITQEGNKFTVKESSNFRNIDVVFELGVDFAYSAWDGTELTGTWTMEGNKLVGKFKRVDNGKELIAVREISGNELIQTYTYEGVEAKRIFKKE
# modifications: acrylodan label
# notes: acrylodan-labeled rI-FABP-L72A mutein: M18 V, G31 A, F55 WT, A73 W
# B4: L2P17H10: acrylodan-labeled rI-FABP-L72A mutein: M18 G, G31 F, F55 WT, A73 L (protein, UniProt P02693 2-132, looked up, variant M18G G31F L72A A73L)
# Fatty acid-binding protein, …: AFDGTWKVDRNENYEKFGEKMGINVVKRKLFAHDNLKLTITQEGNKFTVKESSNFRNIDVVFELGVDFAYSALDGTELTGTWTMEGNKLVGKFKRVDNGKELIAVREISGNELIQTYTYEGVEAKRIFKKE
# modifications: acrylodan label
# notes: acrylodan-labeled rI-FABP-L72A mutein: M18 G, G31 F, F55 WT, A73 L
# B5: L2P2E11: acrylodan-labeled rI-FABP-L72A mutein: M18 I, G31 F, F55 WT, A73 WT (protein, UniProt P02693 2-132, looked up, variant M18I G31F L72A)
# Fatty acid-binding protein, …: AFDGTWKVDRNENYEKFIEKMGINVVKRKLFAHDNLKLTITQEGNKFTVKESSNFRNIDVVFELGVDFAYSAADGTELTGTWTMEGNKLVGKFKRVDNGKELIAVREISGNELIQTYTYEGVEAKRIFKKE
# modifications: acrylodan label
# B6: L2P4C5: acrylodan-labeled rI-FABP-L72A mutein: M18 I, G31 Y, F55 WT, A73 WT (protein, UniProt P02693 2-132, looked up, variant M18I G31Y L72A)
# Fatty acid-binding protein, …: AFDGTWKVDRNENYEKFIEKMGINVVKRKLYAHDNLKLTITQEGNKFTVKESSNFRNIDVVFELGVDFAYSAADGTELTGTWTMEGNKLVGKFKRVDNGKELIAVREISGNELIQTYTYEGVEAKRIFKKE
# modifications: acrylodan label
# B7: L2P22G6: acrylodan-labeled rI-FABP-L72A mutein: M18 I, G31 Y, F55 WT, A73 G (protein, UniProt P02693 2-132, looked up, variant M18I G31Y L72A A73G)
# Fatty acid-binding protein, …: AFDGTWKVDRNENYEKFIEKMGINVVKRKLYAHDNLKLTITQEGNKFTVKESSNFRNIDVVFELGVDFAYSAGDGTELTGTWTMEGNKLVGKFKRVDNGKELIAVREISGNELIQTYTYEGVEAKRIFKKE
# modifications: acrylodan label
# notes: acrylodan-labeled rI-FABP-L72A mutein: M18 I, G31 Y, F55 WT, A73 G
# Test: Mutant probe screening: baseline fluorescence ratio Ro and fatty acid response phenotype
# Assay type: binding
# Details: fluorescence ratio for zero FFAu concentration
row,Molecule,Ro
1,B1,0.39
2,B2,0.36
3,B3,0.35
4,B4,0.23
5,B5,0.31
6,B6,0.35
7,B7,0.30
